Test results published in patent US20250057951A1, “DISCERNIBLE CELL SURFACE PROTEIN VARIANTS OF CD117 FOR USE IN CELL THERAPY” (UNIVERSITÄT BASEL, priority 2021, published 2025).
No constants are given. Whether binding was seen depends on the method and setting. Some results given as binding are weak or reduced against the parent protein; the word gives no strength.

The chains behind the UniProt entries cited, without tags or fusion partners. Where a name states a change or a piece, a line headed by the entry shows the natural chain unless it says otherwise.
UniProt P21583: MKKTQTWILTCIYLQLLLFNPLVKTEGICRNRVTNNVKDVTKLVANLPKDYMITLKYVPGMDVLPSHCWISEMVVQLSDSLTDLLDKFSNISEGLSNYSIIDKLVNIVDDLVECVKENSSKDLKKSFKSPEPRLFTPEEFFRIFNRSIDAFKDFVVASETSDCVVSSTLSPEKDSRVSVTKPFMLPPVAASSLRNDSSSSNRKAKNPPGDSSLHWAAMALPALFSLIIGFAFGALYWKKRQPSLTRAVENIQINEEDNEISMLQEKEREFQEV

Legend:
Test in all cases: BLI (Octet), steady state: biotinylated SCF on streptavidin biosensor, CD117 D1-2-3 variant as analyte; KD relative to WT
E73F = target: E73F
E73I = target: E73I
E73M = target: E73M
E73W = target: E73W
I201V = target: I201V
K127G = target: K127G
S123D = target: S123D
T74M = target: T74M
Y259C = target: Y259C
Y259H = target: Y259H

Measured: binding

Biotinylated Avitag-hSCF (from UniProt P21583 26-190) (ligand)
binds: all assays above
